Source: the supplement of paper PMC7646827
Counter-ions that a name gives are not always drawn. Many values rest on one well or one pass, so single values are uncertain.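 All cells are established human bladder cancer lines, one of them grown from a patient-derived xenograft. Viability was read by a luminescent ATP assay as percent inhibition versus vehicle over a seven-point dilution series; the paper calls scores above 59 very active, 30–59 active, 21–29 semi-active, 9–20 low active and below 9 inactive.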

Assays:
Experiment in all cases: drug sensitivity score DSS3 (score 0-100); higher = more sensitive; extreme values may be limits of the assay
Conditions in all cases: culture: 3D, ultra-low attachment; treatment time: 5 days
UM-UC-9 = system: UM-UC-9
BC8149 = system: BC8149
UM-UC-15 = system: UM-UC-15
TCCSUP = system: TCCSUP
SW780 = system: SW780
UM-UC-17 = system: UM-UC-17
UM-UC-18 = system: UM-UC-18
UM-UC-1 = system: UM-UC-1
T-24 = system: T-24
5637 = system: 5637
UM-UC-5 = system: UM-UC-5
SCaBER = system: SCaBER
UM-UC-3 = system: UM-UC-3
J82 = system: J82
UM-UC-12 = system: UM-UC-12
UM-UC-14 = system: UM-UC-14
UM-UC-6 = system: UM-UC-6

Compound	drug sensitivity score DSS3 (UM-UC-9)	drug sensitivity score DSS3 (BC8149)	drug sensitivity score DSS3 (UM-UC-15)	drug sensitivity score DSS3 (TCCSUP)	drug sensitivity score DSS3 (SW780)	drug sensitivity score DSS3 (UM-UC-17)	drug sensitivity score DSS3 (UM-UC-18)	drug sensitivity score DSS3 (UM-UC-1)	drug sensitivity score DSS3 (T-24)	drug sensitivity score DSS3 5637	drug sensitivity score DSS3 (UM-UC-5)	drug sensitivity score DSS3 (SCaBER)	drug sensitivity score DSS3 (UM-UC-3)	drug sensitivity score DSS3 (J82)	drug sensitivity score DSS3 (UM-UC-12)	drug sensitivity score DSS3 (UM-UC-14)	drug sensitivity score DSS3 (UM-UC-6)
COc1ccc(C2=N[C@@H](c3ccc(Cl)cc3)[C@@H](c3ccc(Cl)cc3)N2C(=O)N2CCNC(=O)C2)c(OC(C)C)c1 [Nutlin-3] (max dose 10000 nM)	0	0	0	0	0	0	0.255	0	0	0	0	0	0	0	0	0	0
O=C(NNS(=O)(=O)c1ccccc1F)c1cc(F)cc(-c2ccccn2)c1 [WM-1119] (max dose 10000 nM)	0	0	24.7	0.523	0	0	0	0.34	0	0.304	0	0	0	0	0	0	5
Cc1[nH]c2ccccc2c1CCNCc1ccc(/C=C/C(=O)NO)cc1 [Panobinostat (LBH589)] (max dose 10000 nM)	26.2	38.8	60.3	63	8.71	35.3	40.1	21.4	39.7	39.5	21.1	26	35.2	26.2	36	37.4	22.2
CC(C)NC[C@@H](C(=O)N1CCN(c2ncnc3c2[C@H](C)C[C@H]3O)CC1)c1ccc(Cl)cc1 [Ipatasertib (GDC-0068)] (max dose 10000 nM)	8.46	0	2.95	6.12	0	0	8.42	7.68	0	1.42	10.2	11.1	1.32	0	0.805	9.27	11.7
CC(C)S(=O)(=O)c1ccc2nccc(Nc3ccc4scnc4c3)c2c1 (max dose 10000 nM)	0	0	1.69	0	0	0	1.12	0	0	0.0359	0	0	0.249	0	0	0	0
CN1CC[C@H](c2c(O)cc(O)c3c(=O)cc(-c4ccccc4Cl)oc23)[C@H](O)C1 [Flavopiridol HCl] (max dose 10000 nM)	15.9	26.6	15.8	24.9	4.26	19.6	26.6	20.3	16.8	20.3	15.3	35.8	24.9	22.7	29.7	7.33	16.5
CN1CCC(CNc2ccc3ncc(-c4cccc(OC(F)(F)F)c4)n3n2)CC1 [SGI-1776 free base] (max dose 10000 nM)	0	2.26	0	7.52	0	2.65	12	3.03	0	2.44	0	0	1.58	0	0.61	12	4.74
O=c1c(O)c(-c2ccc(O)c(O)c2)oc2cc(O)cc(O)c12 [Quercetin] (max dose 10000 nM)	0	0	0	0	0	0	0	0	0	0	0	0.788	0	0	0	0	0
CCCCc1nc2cc(/C=C/C(=O)NO)ccc2n1CCN(CC)CC [Pracinostat (SB939)] (max dose 10000 nM)	4.02	18	25	24.6	3.15	10.3	11.6	4.23	6.5	12.2	3.73	3.71	6.81	2.77	8.29	11.9	9.32
NC(=O)c1ccc(-c2nc(-c3ccccn3)c(-c3ccc4c(c3)OCO4)[nH]2)cc1 (max dose 10000 nM)	0.808	1.72	0	2.46	0.539	1.52	1.34	1.34	0	2.69	0	0.264	0	0.0489	2.41	4.46	2.46
Cc1nn(-c2ccccc2)c(C)c1C=NN1CCN(Cc2ccccc2)CC1 [SANT-1] (max dose 10000 nM)	0	1.49	19	1.4	0.161	5.33	0.109	0	0	0.122	0	0.119	0	0	0	0	0.0322
CC1(C)C=C(CN2C/C(=C\c3ccc(F)cc3)C(=O)/C(=C/c3ccc(F)cc3)C2)C(C)(C)N1O [HO-3867] (max dose 10000 nM)	0	0	0	0	0	0	0	0	0.0712	0	0	0	0	0	0	0	0.256
COc1cc(NC(=O)c2ccc(-c3ccc(Cl)cc3)o2)cc(OC)c1 (max dose 10000 nM)	0.00408	0	2.67	1.59	0	0	0.407	0	0	0	0	0	0	0	0	0	0.923
CNC(=O)c1cc(Oc2ccc3nc(N[C@@H]4CCCC[C@H]4O)sc3c2)ccn1 [BLZ945] (max dose 10000 nM)	0	0	0.308	0	0	0	0	0	0	0	0	0	0	0	0	0	0
CCN(CC)CCCCNc1ncc2cc(-c3cc(OC)cc(OC)c3)c(NC(=O)NC(C)(C)C)nc2n1 (max dose 10000 nM)	0	7.57	0	17.4	0.913	3.24	2.5	4.14	1.08	4.76	0.543	2.77	0.964	1.46	1.73	7.6	3.43
Fc1cc(-c2cccc3ncc(-c4cnn(C5CCNCC5)c4)nc23)cc(F)c1CN1CCOCC1 [NVP-BSK805 2HCl] (max dose 10000 nM)	0.711	0.225	0	0	2.15	0.601	1.35	2.05	0	2.55	0	2.41	0	0	1.82	0.983	0
CCCCN(Cc1ccc(C(=O)NO)cc1)C(=O)Nc1ccccc1 [Nexturastat A] (max dose 10000 nM)	0	2.49	4.51	1.89	0	0.00126	0	0	0	0.451	0	6.8	13.1	0	0.722	0.158	0.278
CC(C)(F)C[C@H](N[C@@H](c1ccc(-c2ccc(S(C)(=O)=O)cc2)cc1)C(F)(F)F)C(=O)NC1(C#N)CC1 [Odanacatib (MK-0822)] (max dose 10000 nM)	0	0	0	0	0	0	0	0	0	0	0	0	0	0	0	1.56	0.00153
CC(C)(C#N)c1cc(Cn2cncn2)cc(C(C)(C)C#N)c1 [Anastrozole] (max dose 10000 nM)	0	0.00587	0	1.29	0	0	0	0.196	0	0	0	0	0	0	0.00311	0	0
COc1ccc(CCNCc2ccc(OCc3ccc(Cl)nc3)c(OC)c2)cc1OC [SBE 13 HCl] (max dose 10000 nM)	0.16	0	0	0	0	0	0	0	0	0	0	0	0	0	0.904	0	0.00499
C/C(=C\C(=O)Nc1ccccc1C(=O)O)c1ccc2ccccc2c1 [BIBR 1532] (max dose 10000 nM)	0	0	0	0	0	0	0	0	0	0	0	0	0	0	0	0	0
O=S(=O)(CC1CS1)c1ccc(Oc2ccccc2)cc1 (stereo not drawn) [SB-3CT] (max dose 10000 nM)	0	0.122	0.128	0	0	0	0	0	0	0	0	0	0	0	0	0	0
Cn1cnc(N)c2ncnc1-2 [3-Methyladenine] (max dose 10000 nM)	0	0	0	0	0	0	0	0	0	0	0	0	0	0	0	0	0
C[C@H](Nc1ncnc2[nH]cnc12)c1cc2ccc(F)cc2nc1-c1ccccn1 [AMG319] (max dose 10000 nM)	0	0	0	3.33	4.17	0.223	0	1.29	17	2.17	1.28	4.93	6.81	3.33	0.632	1.11	0.846

Given in CSV form: 2 of the compounds above
Compound,drug sensitivity score DSS3 (UM-UC-9),drug sensitivity score DSS3 (BC8149),drug sensitivity score DSS3 (UM-UC-15),drug sensitivity score DSS3 (TCCSUP),drug sensitivity score DSS3 (SW780),drug sensitivity score DSS3 (UM-UC-17),drug sensitivity score DSS3 (UM-UC-18),drug sensitivity score DSS3 (UM-UC-1),drug sensitivity score DSS3 (T-24),drug sensitivity score DSS3 5637,drug sensitivity score DSS3 (UM-UC-5),drug sensitivity score DSS3 (SCaBER),drug sensitivity score DSS3 (UM-UC-3),drug sensitivity score DSS3 (J82),drug sensitivity score DSS3 (UM-UC-12),drug sensitivity score DSS3 (UM-UC-14),drug sensitivity score DSS3 (UM-UC-6)
CN1CC[C@H](c2c(O)cc(O)c3c(=O)cc(-c4ccccc4Cl)oc23)[C@H](O)C1 [Flavopiridol HCl] (max dose 10000 nM),15.9,26.6,15.8,24.9,4.26,19.6,26.6,20.3,16.8,20.3,15.3,35.8,24.9,22.7,29.7,7.33,16.5
Cc1nn(-c2ccccc2)c(C)c1C=NN1CCN(Cc2ccccc2)CC1 [SANT-1] (max dose 10000 nM),0,1.49,19,1.4,0.161,5.33,0.109,0,0,0.122,0,0.119,0,0,0,0,0.0322
